PubChem BioAssay AID1159578, Peter MacCallum Cancer Centre, 2015
Shown is an unselected part of about 18,000 reagents tested. Over the whole deposit, about 1,030 (5.7%) were called active. 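Inactive calls also include pools with fewer than 3300 nuclei, whose migration was not assessed.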 The raw values are shown without normalisation. Entries without a mark were called inactive. Not all columns of the deposit are shown.

Screen: 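siRNA pools altering how lymphatic endothelial cells close a scratch wound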 (primary screen)
System: human lymphatic endothelial cells
Reagent: siRNA pool against human genes, 40 nM
Time to read-out: 48 h after transfection
Read-out: 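Cells stained with dye and imaged after a scratch; covered wound area and nuclei counted, duplicates averaged, migration set against mock wells and turned into a robust z-score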
Reading the numbers: migration robust z-score: higher = faster migration into the scratch; nuclei per well: higher = more cells in the well
Call rule: 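Migration changed when robust z exceeds 2 or falls below -2 and mean nuclei number is at least 3300; otherwise not called changed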
Meaning of the calls: active = migration changed; inactive = no migration change, or too few cells

The first 2 entries, to show the layout:
SNRNP70 → migration robust z-score: -0.69; migration class with cell-count check: migration z between -2 and 2; enough cells; nuclei per well, duplicate mean: 6196
CALM2 → migration robust z-score: -2.02 (active); migration class with cell-count check: migration z below -2; enough cells; nuclei per well, duplicate mean: 3513

Main list, repeating the preview:
SNRNP70 → migration robust z-score: -0.69; migration class with cell-count check: migration z between -2 and 2; enough cells; nuclei per well, duplicate mean: 6196
CALM2 → migration robust z-score: -2.02 (active); migration class with cell-count check: migration z below -2; enough cells; nuclei per well, duplicate mean: 3513
MYPOP → migration robust z-score: 0.47; migration class with cell-count check: migration z between -2 and 2; enough cells; nuclei per well, duplicate mean: 5434
ZFP91 → migration robust z-score: 0.66; migration class with cell-count check: migration z between -2 and 2; enough cells; nuclei per well, duplicate mean: 5244
LY6S-AS1 → migration robust z-score: -0.26; migration class with cell-count check: migration z between -2 and 2; enough cells; nuclei per well, duplicate mean: 4612
NSRP1 → migration robust z-score: 1.18; migration class with cell-count check: migration z between -2 and 2; enough cells; nuclei per well, duplicate mean: 5452
TRAPPC2 → migration robust z-score: -0.24; migration class with cell-count check: migration z between -2 and 2; enough cells; nuclei per well, duplicate mean: 7462
CLPS → migration robust z-score: 1.15; migration class with cell-count check: migration z between -2 and 2; enough cells; nuclei per well, duplicate mean: 6579
TMEM138 → migration robust z-score: 2.11 (active); migration class with cell-count check: migration z above 2; enough cells; nuclei per well, duplicate mean: 6216
TAS2R19 → migration robust z-score: 1.17; migration class with cell-count check: migration z between -2 and 2; enough cells; nuclei per well, duplicate mean: 5543
THOC7 → migration robust z-score: -0.01; migration class with cell-count check: migration z between -2 and 2; enough cells; nuclei per well, duplicate mean: 6390
LHB → migration robust z-score: -0.45; migration class with cell-count check: migration z between -2 and 2; enough cells; nuclei per well, duplicate mean: 6274
PAK1IP1 → migration robust z-score: 0.95; migration class with cell-count check: migration z between -2 and 2; enough cells; nuclei per well, duplicate mean: 6532
PLEKHB2 → migration robust z-score: 0.12; migration class with cell-count check: migration z between -2 and 2; enough cells; nuclei per well, duplicate mean: 5402
